Measurements published in PubChem BioAssay AID330 (DTP/NCI, 2004).
The list is a part of this screen's results and no random one: it is rich in T/C values a quarter to a half above the control, in often repeated tests (any T/C) and in doses without a T/C. Further doses and runs are listed elsewhere. T/C: endpoint of the treated group in % of that of the vehicle group. Some doses have a count of surviving animals in place of a T/C: the source holds a T/C of zero for them, seemingly a mark for toxic or unscored doses. Some survivor counts are full or nearly so, which does not show that the dose was tolerated: the source hardly ever lists a survival T/C far under the control, and the zero likely stands for such cases as well. Counts of survivors are from the toxicity check (mostly the fifth day) where no day follows; animals may have died later. Schedule codes are those of the source, taken here to give the interval after Q, in days (D) or hours (H), and the number of doses after X. Where survival is the endpoint, the PubChem record calls one and a half times the control and up active, and a quarter to a half above the control has no call in these data; cut-offs in other NCI protocols can differ. Some T/C values are followed by the survivors on the day toxicity was checked, most often the fifth; where none is given, no animal had died by that day. Some entries hold several experiments; the results are listed from low to high. Signs of the kind (2×) give the number of equal values in this list.

System: P388 leukemia ip, CD2F1 mice, survival T/C
Experiment: NCI In Vivo Anticancer Drug Screen. Data for tumor model P388 Leukemia (intraperitoneal) in CD2F1 (CDF1) mice
Details: T/C endpoint: median survival time, higher T/C = longer survival
[1] = dose: 200.0 mg/kg/injection, schedule: Q04DX003 (ip), vehicle: saline
[2] = dose: 400.0 mg/kg/injection, schedule: Q04DX003 (ip), vehicle: saline with Tween-80
[3] = dose: 25.0 mg/kg/injection, schedule: Q01DX009 (ip), vehicle: saline
[4] = dose: 50.0 mg/kg/injection, schedule: Q01DX009 (ip), vehicle: saline
[5] = dose: 100.0 mg/kg/injection, schedule: Q01DX009 (ip), vehicle: saline
[6] = dose: 200.0 mg/kg/injection, schedule: Q01DX009 (ip), vehicle: saline
[7] = dose: 100.0 mg/kg/injection, schedule: Q01DX009 (ip), vehicle: saline with Tween-80
[8] = dose: 50.0 mg/kg/injection, schedule: Q01DX005 (ip), vehicle: saline with Tween-80
[9] = dose: 100.0 mg/kg/injection, schedule: Q01DX005 (ip), vehicle: saline with Tween-80
[10] = dose: 200.0 mg/kg/injection, schedule: Q01DX009 (ip), vehicle: saline with Tween-80

With `NC(N)=N/N=C/C(Cl)Cl` the survivor count [1] was 1 of 6 and the survivor count (dose: 400.0 mg/kg/injection, schedule: Q04DX003 (ip), vehicle: saline) was 0 of 6.
For `O=Cc1ncccc1[N+](=O)[O-]`, the survivor count (dose: 200.0 mg/kg/injection, schedule: Q01DX009 (ip), vehicle: saline + Tween-80 + alcohol) was 0 of 6.
For `COCC(=O)[C@]1(O)Cc2c(O)c3c(c(O)c2[C@@H](OC2CC(N)C(O)C(C)O2)C1)C(=O)c1c(OC)cccc1C3=O` (some centres not stated), the T/C (dose: 50.0 mg/kg/injection, schedule: Q04DX003 (ip), vehicle: water) was 127 % of control.
In the case of `COc1cc(C(=O)Oc2c(OC)cc(C(=O)c3cc4c(cc3C)OCO4)cc2OC)cc(OC)c1OC`, the survivor count (dose: 200.0 mg/kg/injection, schedule: Q01DX005 (ip), vehicle: Klucel (hydroxypropylcellulose) (HPC)) was 5 of 6.
`Cc1ccc(N=C(N)NC#N)cc1` was tested, and the survivor count [2] was 6 of 6.
For `CC(C)[CH2][Ge]([Cl])([Cl])[Cl]`, the survivor count (dose: 12.5 mg/kg/injection, schedule: Q01DX009 (ip), vehicle: saline) was 3 of 6, the survivor count [3] was 2 of 6 and the survivor count [4] was 0 of 6. The survivor count [5] was 0 of 6 and the survivor count [6] was 0 of 6.
For `CCCCCCCCCCCc1n(Cc2ccccc2)c2ccccc2[n+]1C`, the survivor count (dose: 1.0 mg/kg/injection, schedule: Q01DX009 (ip), vehicle: saline sonified) was 4 of 6.
For `CC1OC(OCc2ccc(-c3ccccc3)cc2)CC(N)C1O` (configuration not stated), the survivor count (dose: 50.0 mg/kg/injection, schedule: Q01DX009 (ip), vehicle: water) was 0 of 6.
In the case of `O=C1CSC(c2ccc(F)cc2F)N1c1nncs1` (configuration not stated), the survivor count (dose: 240.0 mg/kg/injection, schedule: Q01DX005 (ip), vehicle: saline with Tween-80) was 6 of 6.
In the case of `O=C1OCC/C1=C1/Nc2ccccc2NC1=O`, the survivor count [7] was 6 of 6.
`COC(=O)CN(C)P(=O)(N1CC1)N1CC1` was tested, and the T/C (dose: 3.75 mg/kg/injection, schedule: Q01DX005 (ip), vehicle: saline with Tween-80) was 138 % of control, the T/C (dose: 7.5 mg/kg/injection, schedule: Q01DX005 (ip), vehicle: saline) was 146 % of control and the survivor count (dose: 15.0 mg/kg/injection, schedule: Q01DX005 (ip), vehicle: saline with Tween-80) was 5 of 6. For the same compound, the survivor count (dose: 60.0 mg/kg/injection, schedule: Q01DX005 (ip), vehicle: saline) was 5 of 6, the survivor count (dose: 120.0 mg/kg/injection, schedule: Q01DX005 (ip), vehicle: saline) was 0 of 6 and the survivor count (dose: 240.0 mg/kg/injection, schedule: Q01DX005 (ip), vehicle: saline) was 0 of 6.
`NC(=O)c1csc(C2OC(CO)C(O)C2O)n1` (configuration not stated) was tested, and the T/C (dose: 37.5 mg/kg/injection, schedule: Q01DX005 (ip), vehicle: water) was 129 % of control, the T/C (dose: 50.0 mg/kg/injection, schedule: Q01DX005 (ip), vehicle: saline) was 143 and 145 % of control [5 of 6 alive] and the T/C (dose: 50.0 mg/kg/injection, schedule: Q01DX005 (ip), vehicle: water) was 137 and 140 % of control. For the same compound, the T/C (dose: 75.0 mg/kg/injection, schedule: Q01DX005 (ip), vehicle: water) was 142 % of control, the T/C (dose: 100.0 mg/kg/injection, schedule: Q01DX005 (ip), vehicle: water) was 143 % of control and the T/C (dose: 150.0 mg/kg/injection, schedule: Q01DX005 (ip), vehicle: water) was 149 % of control. The T/C (dose: 200.0 mg/kg/injection, schedule: Q01DX005 (ip), vehicle: water) was 146 % of control, the T/C (dose: 220.0 mg/kg/injection, schedule: Q01DX009 (ip), vehicle: water, evaluated on day 45) was 180, 189, 194, 203, 209 % of control and the T/C (dose: 220.0 mg/kg/injection, schedule: Q01DX009 (ip), vehicle: water, evaluated on day 60) was 192 and 200 % of control. The T/C (dose: 330.0 mg/kg/injection, schedule: Q01DX009 (ip), vehicle: water, evaluated on day 45) was 190, 200 (2×), 207, 209, 219 % of control, the T/C (dose: 330.0 mg/kg/injection, schedule: Q01DX009 (ip), vehicle: water, evaluated on day 60) was 198 [9 of 10 alive], 199, 203, 211 % of control (2×) and the T/C (dose: 500.0 mg/kg/injection, schedule: Q01DX009 (ip), vehicle: water, evaluated on day 30) was 198 and 210 % of control. For the same compound, the T/C (dose: 500.0 mg/kg/injection, schedule: Q01DX009 (ip), vehicle: water, evaluated on day 45) was 198, 210, 219, 221 [8 of 9 alive], 227 [9 of 10 alive], 231 % of control and the T/C (dose: 500.0 mg/kg/injection, schedule: Q01DX009 (ip), vehicle: water, evaluated on day 60) was 202, 214 (2×), 227, 229 % of control.
For `N#CC1=C(C#N)Sc2nc3cc(Cl)ccc3nc2S1`, the survivor count [3] was 5 of 6, the survivor count [4] was 5 of 6 and the survivor count [5] was 4 of 6. For the same compound, the survivor count [6] was 2 of 6.
For `CCC1=CCC2C(=O)c3cc4ccccc4cc3C(=O)C2C1` (configuration not stated), the survivor count [8] was 5 of 5 and the survivor count [9] was 0 of 5.
In the case of `NNc1nncc2ccccc12`, the survivor count (dose: 50.0 mg/kg/injection, schedule: Q04DX003 (ip), vehicle: saline) was 6 of 6 and the survivor count [1] was 0 of 6.
With `CC(C)CC(=O)CC(=O)C(C)(C)C.CC(C)CC(=O)CC(=O)C(C)(C)C.[Cu]` the survivor count (dose: 200.0 mg/kg/injection, schedule: Q04DX003 (ip), vehicle: Klucel (hydroxypropylcellulose) (HPC)) was 6 of 6 and the survivor count (dose: 400.0 mg/kg/injection, schedule: Q04DX003 (ip), vehicle: Klucel (hydroxypropylcellulose) (HPC)) was 0 of 6.
`Cc1ccc(S(=O)CF)cc1` (configuration not stated) was tested, and the survivor count (dose: 200.0 mg/kg/injection, schedule: Q04DX003 (ip), vehicle: saline with Tween-80) was 1 of 6 and the survivor count [2] was 0 of 6.
`C=CCNC(=O)/C=C\C(=O)O` was tested, and the T/C (dose: 25.0 mg/kg/injection, schedule: Q01DX009 (ip), vehicle: saline with Tween-80) was 92, 101 (2×), 108 % of control, the T/C (dose: 50.0 mg/kg/injection, schedule: Q01DX009 (ip), vehicle: saline with Tween-80) was 99, 103, 105, 106 % of control and the T/C [7] was 101, 101 [5 of 6 alive], 105, 108 % of control. The T/C [10] was 101 [5 of 6 alive], 105, 106, 120 % of control.
With `O=c1oc(-c2ccco2)ns1` the survivor count (dose: 100.0 mg/kg/injection, schedule: Q01DX009 (ip), vehicle: Klucel (hydroxypropylcellulose) (HPC)) was 2 of 6, the survivor count (dose: 200.0 mg/kg/injection, schedule: Q01DX009 (ip), vehicle: Klucel (hydroxypropylcellulose) (HPC)) was 1 of 6 and the survivor count (dose: 400.0 mg/kg/injection, schedule: Q01DX009 (ip), vehicle: Klucel (hydroxypropylcellulose) (HPC)) was 0 of 6.
`CC1(C)OC(=O)N=C1c1ccc(Br)cc1` was tested, and the survivor count (dose: 240.0 mg/kg/injection, schedule: Q01DX005 (ip), vehicle: Klucel (hydroxypropylcellulose) (HPC)) was 5 of 6.
`OC(c1ccccc1)(C1CCNCC1)C1CC1` (configuration not stated) was tested, and the T/C (dose: 100.0 mg/kg/injection, schedule: Q01DX001 (ip), vehicle: saline) was 131 % of control, the survivor count (dose: 200.0 mg/kg/injection, schedule: Q01DX001 (ip), vehicle: Klucel (hydroxypropylcellulose) (HPC)) was 1 of 6 and the survivor count (dose: 400.0 mg/kg/injection, schedule: Q01DX001 (ip), vehicle: Klucel (hydroxypropylcellulose) (HPC)) was 1 of 6.
With `Cc1c2ccccc2c(C)c2c1ccc1ccccc12` the T/C (dose: 12.5 mg/kg/injection, schedule: Q01DX009 (ip), vehicle: saline with Tween-80) was 126 and 130 % of control, the survivor count [7] was 6 of 6 and the survivor count [10] was 6 of 6. For the same compound, the survivor count (dose: 200.0 mg/kg/injection, schedule: Q04DX003 (ip), vehicle: other) was 0 of 6 and the survivor count (dose: 400.0 mg/kg/injection, schedule: Q01DX009 (ip), vehicle: saline with Tween-80) was 5 of 6.
For `CC1[C@@]2(O[C@@H]3C=C4C5CCC6Cc7nc8c(nc7C[C@@]6(C)C5C[C@H](O)[C@@]4(C)[C@]13O)CC1CCc3c(cc4c5c3C(O)C[C@H]5[C@@H](C)C3(O4)OC(C)(C)CC3O)[C@]1(C)C8)O[C@@](C)(CO)C[C@@H]2O` (some centres not stated), the T/C (dose: 50.0 micrograms/kg/injection, schedule: Q01DX009 (ip), vehicle: saline + alcohol) was 125 % of control.
`CCOc1cc2c(OCc3ccccc3)cc3c4cc(OC)c(OC)cc4c[n+](C)c3c2cc1OC` was tested, and the survivor count [8] was 0 of 6, the survivor count [9] was 0 of 6 and the survivor count (dose: 200.0 mg/kg/injection, schedule: Q01DX005 (ip), vehicle: saline with Tween-80) was 0 of 6.
